# Reference: the supplement of paper PMC8728848
# The other results are listed elsewhere or left out.
# B1: CALR truncated at D342 (Homo sapiens) (protein)
# chain: EPAVYFKEQFLDGDGWTSRWIESKHKSDFGKFVLSSGKFYGDEEKDKGLQTSQDARFYALSASFEPFSNKGQTLVVQFTVKHEQNIDCGGGYVKLFPNSLDQTDMHGDSEYNIMFGPDICGPGTKKVHVIFNYKGKNVLINKDIRCKDDEFTHLYTLIVRPDNTYEVKIDNSQVESGSLEDDWDFLPPKKIKDPDASKPEDWDERAKIDDPTDSKPEDWDKPEHIPDPDAKKPEDWDEEMDGEWEPPVIQNPEYKGEWKPRQIDNPDYKGTWIHPEIDNPEYSPDPSIYAYDNFGVLGLDLWQVKSGTIFDNFLITNDEAYAEEFGNETWGVTKAAEKQMKD
# Legend:
# Test in all cases: glycan array binding signal (z-score within array); higher = stronger binding
# Conditions in all cases: glycan notation: IUPAC condensed, linker removed
# Fuc(a1-2)Gal = biological target: Fuc(a1-2)Gal
# Outline: (§1)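 The Consortium for Functional Glycomics database supplied 3228 glycan arrays, of which those lacking an available protein sequence were dropped. The binding signal, a within-array Z-score, was averaged across arrays of the same protein sequence and across linkers. Negative scores can be read as non-binding.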
# Fuc(a1-2)Gal(b1-3)GalNAc = biological target: Fuc(a1-2)Gal(b1-3)GalNAc
# Outline: as §1
# [1] = biological target: Fuc(a1-2)Gal(b1-3)GalNAc(a1-3)[Fuc(a1-2)]Gal(b1-4)Glc
# Outline: as §1
# [2] = biological target: Fuc(a1-2)Gal(b1-3)GalNAc(a1-3)[Fuc(a1-2)]Gal(b1-4)GlcNAc
# Outline: as §1
# [3] = biological target: Fuc(a1-2)Gal(b1-3)GalNAc(b1-3)Gal
# Outline: as §1
# [4] = biological target: Fuc(a1-2)Gal(b1-3)GalNAc(b1-3)Gal(a1-4)Gal(b1-4)Glc
# Outline: as §1
# [5] = biological target: Fuc(a1-2)Gal(b1-3)GalNAc(b1-4)[Neu5Ac(a2-3)]Gal(b1-4)Glc
# Outline: as §1
# Fuc(a1-2)Gal(b1-3)GlcNAc = biological target: Fuc(a1-2)Gal(b1-3)GlcNAc
# Outline: as §1
# [6] = biological target: Fuc(a1-2)Gal(b1-3)GlcNAc(b1-2)Man(a1-3)[Fuc(a1-2)Gal(b1-3)GlcNAc(b1-2)Man(a1-6)]Man(b1-4)GlcNAc(b1-4)GlcNAc
# Outline: as §1
# [7] = biological target: Fuc(a1-2)Gal(b1-3)GlcNAc(b1-2)Man(a1-3)[Fuc(a1-2)Gal(b1-3)GlcNAc(b1-2)Man(a1-6)]Man(b1-4)GlcNAc(b1-4)[Fuc(a1-6)]GlcNAc
# Outline: as §1
# [8] = biological target: Fuc(a1-2)Gal(b1-3)GlcNAc(b1-3)Gal(b1-4)Glc
# Outline: as §1
# [9] = biological target: Fuc(a1-2)Gal(b1-3)GlcNAc(b1-3)GalNAc
# Outline: as §1
# [10] = biological target: Fuc(a1-2)Gal(b1-3)GlcNAc(b1-3)[Fuc(a1-2)Gal(b1-3)GlcNAc(b1-6)]GalNAc
# Outline: as §1
# [11] = biological target: Fuc(a1-2)Gal(b1-3)GlcNAc(b1-3)[Fuc(a1-3)[Gal(b1-4)]GlcNAc(b1-6)]Gal(b1-4)Glc
# Outline: as §1
# [12] = biological target: Fuc(a1-2)Gal(b1-3)GlcNAc(b1-3)[Gal(b1-4)GlcNAc(b1-6)]Gal(b1-4)Glc
# Outline: as §1
# [13] = biological target: Fuc(a1-2)Gal(b1-3)GlcNAc(b1-3)[Neu5Ac(a2-6)Gal(b1-4)GlcNAc(b1-6)]Gal(b1-4)Glc
# Outline: as §1
# [14] = biological target: Fuc(a1-2)Gal(b1-3)GlcNAc6S
# Outline: as §1
# [15] = biological target: Fuc(a1-2)Gal(b1-3)[Fuc(a1-4)]GlcNAc
# Outline: as §1
# [16] = biological target: Fuc(a1-2)Gal(b1-3)[Fuc(a1-4)]GlcNAc(b1-2)Man(a1-3)[Fuc(a1-2)Gal(b1-3)[Fuc(a1-4)]GlcNAc(b1-2)Man(a1-6)]Man(b1-4)GlcNAc(b1-4)GlcNAc
# Outline: as §1
# [17] = biological target: Fuc(a1-2)Gal(b1-3)[Fuc(a1-4)]GlcNAc(b1-2)Man(a1-6)[Fuc(a1-2)Gal(b1-3)[Fuc(a1-4)]GlcNAc(b1-2)Man(a1-3)]Man(b1-4)GlcNAc(b1-4)[Fuc(a1-6)]GlcNAc
# Outline: as §1
# [18] = biological target: Fuc(a1-2)Gal(b1-3)[Fuc(a1-4)]GlcNAc(b1-3)[Fuc(a1-3)[Gal(b1-4)]GlcNAc(b1-6)]Gal(b1-4)Glc
# Outline: as §1
# [19] = biological target: Fuc(a1-2)Gal(b1-3)[Fuc(a1-4)]GlcNAc(b1-3)[Gal(b1-4)GlcNAc(b1-6)]Gal(b1-4)Glc
# Outline: as §1
# Fuc(a1-2)Gal(b1-4)Glc = biological target: Fuc(a1-2)Gal(b1-4)Glc
# Outline: as §1
# Fuc(a1-2)Gal(b1-4)Glc6S = biological target: Fuc(a1-2)Gal(b1-4)Glc6S
# Outline: as §1
# Fuc(a1-2)Gal(b1-4)GlcNAc = biological target: Fuc(a1-2)Gal(b1-4)GlcNAc
# Outline: as §1
# [20] = biological target: Fuc(a1-2)Gal(b1-4)GlcNAc(b1-2)Man
# Outline: as §1
# [21] = biological target: Fuc(a1-2)Gal(b1-4)GlcNAc(b1-2)Man(a1-3)[Fuc(a1-2)Gal(b1-4)GlcNAc(b1-2)Man(a1-6)]Man(b1-4)GlcNAc(b1-4)GlcNAc
# Outline: as §1
# [22] = biological target: Fuc(a1-2)Gal(b1-4)GlcNAc(b1-2)Man(a1-3)[Fuc(a1-2)Gal(b1-4)GlcNAc(b1-2)Man(a1-6)]Man(b1-4)GlcNAc(b1-4)[Fuc(a1-6)]GlcNAc
# Outline: as §1
# [23] = biological target: Fuc(a1-2)Gal(b1-4)GlcNAc(b1-2)[Fuc(a1-2)Gal(b1-4)GlcNAc(b1-4)]Man(a1-3)[Fuc(a1-2)Gal(b1-4)GlcNAc(b1-2)Man(a1-6)]Man(b1-4)GlcNAc(b1-4)GlcNAc
# Outline: as §1
# [24] = biological target: Fuc(a1-2)Gal(b1-4)GlcNAc(b1-3)Gal(b1-4)GlcNAc
# Outline: as §1
# [25] = biological target: Fuc(a1-2)Gal(b1-4)GlcNAc(b1-3)Gal(b1-4)GlcNAc(b1-3)Gal(b1-4)GlcNAc
# Outline: as §1
# [26] = biological target: Fuc(a1-2)Gal(b1-4)GlcNAc(b1-3)GalNAc
# Outline: as §1
# [27] = biological target: Fuc(a1-2)Gal(b1-4)GlcNAc(b1-3)[Fuc(a1-2)Gal(b1-4)GlcNAc(b1-6)]GalNAc
# Outline: as §1
# [28] = biological target: Fuc(a1-2)Gal(b1-4)GlcNAc(b1-6)GalNAc
# Outline: as §1
# [29] = biological target: Fuc(a1-2)Gal(b1-4)GlcNAc6S
# Outline: as §1
# [30] = biological target: Fuc(a1-2)Gal(b1-4)[Fuc(a1-3)]GlcNAc
# Outline: as §1
# [31] = biological target: Fuc(a1-2)Gal(b1-4)[Fuc(a1-3)]GlcNAc(b1-2)Man(a1-3)[Fuc(a1-2)Gal(b1-4)[Fuc(a1-3)]GlcNAc(b1-2)Man(a1-6)]Man(b1-4)GlcNAc(b1-4)GlcNAc
# Outline: as §1
# [32] = biological target: Fuc(a1-2)Gal(b1-4)[Fuc(a1-3)]GlcNAc(b1-2)Man(a1-6)[Fuc(a1-2)Gal(b1-4)[Fuc(a1-3)]GlcNAc(b1-2)Man(a1-3)]Man(b1-4)GlcNAc(b1-4)[Fuc(a1-6)]GlcNAc
# Outline: as §1
# [33] = biological target: Fuc(a1-2)Gal(b1-4)[Fuc(a1-3)]GlcNAc(b1-2)[Fuc(a1-2)Gal(b1-4)[Fuc(a1-3)]GlcNAc(b1-4)]Man(a1-3)[Fuc(a1-2)Gal(b1-4)[Fuc(a1-3)]GlcNAc(b1-2)Man(a1-6)]Man(b1-4)GlcNAc(b1-4)GlcNAc
# Outline: as §1
# [34] = biological target: Fuc(a1-2)Gal(b1-4)[Fuc(a1-3)]GlcNAc(b1-3)Gal(b1-4)[Fuc(a1-3)]GlcNAc
# Outline: as §1
# [35] = biological target: Fuc(a1-2)Gal(b1-4)[Fuc(a1-3)]GlcNAc(b1-3)Gal(b1-4)[Fuc(a1-3)]GlcNAc(b1-3)Gal(b1-4)[Fuc(a1-3)]GlcNAc
# Outline: as §1
# [36] = biological target: Fuc(a1-2)Gal(b1-4)[Fuc(a1-3)]GlcNAc(b1-3)GalNAc
# Outline: as §1
# [37] = biological target: Fuc(a1-2)Gal(b1-4)[Fuc(a1-3)]GlcNAc(b1-3)[Neu5Ac(a2-6)Gal(b1-4)GlcNAc(b1-6)]Gal(b1-4)Glc
# Outline: as §1
# [38] = biological target: Fuc(a1-2)Gal6S(b1-3)GlcNAc
# Outline: as §1
# [39] = biological target: Fuc(a1-2)Gal6S(b1-3)GlcNAc6S
# Outline: as §1
binder,measurement,setting,value
B1,glycan array binding signal (z-score),Fuc(a1-2)Gal,-0.171
same,glycan array binding signal (z-score),Fuc(a1-2)Gal(b1-3)GalNAc,0.683
same,glycan array binding signal (z-score),[1],2.69
same,glycan array binding signal (z-score),[2],2.31
same,glycan array binding signal (z-score),[3],-0.668
same,glycan array binding signal (z-score),[4],-0.373
same,glycan array binding signal (z-score),[5],-0.359
same,glycan array binding signal (z-score),Fuc(a1-2)Gal(b1-3)GlcNAc,-0.475
same,glycan array binding signal (z-score),[6],-0.776
same,glycan array binding signal (z-score),[7],-0.24
same,glycan array binding signal (z-score),[8],-0.803
same,glycan array binding signal (z-score),[9],-1.55
same,glycan array binding signal (z-score),[10],-0.633
same,glycan array binding signal (z-score),[11],-1.53
same,glycan array binding signal (z-score),[12],-0.254
same,glycan array binding signal (z-score),[13],0.712
same,glycan array binding signal (z-score),[14],1.55
same,glycan array binding signal (z-score),[15],0.785
same,glycan array binding signal (z-score),[16],3.18
same,glycan array binding signal (z-score),[17],0.387
same,glycan array binding signal (z-score),[18],1.09
same,glycan array binding signal (z-score),[19],0.169
same,glycan array binding signal (z-score),Fuc(a1-2)Gal(b1-4)Glc,-0.883
same,glycan array binding signal (z-score),Fuc(a1-2)Gal(b1-4)Glc6S,0.748
same,glycan array binding signal (z-score),Fuc(a1-2)Gal(b1-4)GlcNAc,0.301
same,glycan array binding signal (z-score),[20],-1.98
same,glycan array binding signal (z-score),[21],-0.268
same,glycan array binding signal (z-score),[22],0.591
same,glycan array binding signal (z-score),[23],2.76
same,glycan array binding signal (z-score),[24],-0.209
same,glycan array binding signal (z-score),[25],2.11
same,glycan array binding signal (z-score),[26],0.339
same,glycan array binding signal (z-score),[27],2
same,glycan array binding signal (z-score),[28],0.971
same,glycan array binding signal (z-score),[29],-0.068
same,glycan array binding signal (z-score),[30],0.02
same,glycan array binding signal (z-score),[31],1.26
same,glycan array binding signal (z-score),[32],1.04
same,glycan array binding signal (z-score),[33],2.8
same,glycan array binding signal (z-score),[34],-0.688
same,glycan array binding signal (z-score),[35],-0.783
same,glycan array binding signal (z-score),[36],1.28
same,glycan array binding signal (z-score),[37],-0.693
same,glycan array binding signal (z-score),[38],1.03
same,glycan array binding signal (z-score),[39],0.958

# A section from further up, for reference:
binder,measurement,setting,value
B1,glycan array binding signal (z-score),[17],0.387
same,glycan array binding signal (z-score),[18],1.09
same,glycan array binding signal (z-score),[19],0.169
